For the experiment, the target named is T1, ARCN1-Myc (archain 1, δ subunit of coat protein complex I) (human) (UniProt P48444).
T1 sequence: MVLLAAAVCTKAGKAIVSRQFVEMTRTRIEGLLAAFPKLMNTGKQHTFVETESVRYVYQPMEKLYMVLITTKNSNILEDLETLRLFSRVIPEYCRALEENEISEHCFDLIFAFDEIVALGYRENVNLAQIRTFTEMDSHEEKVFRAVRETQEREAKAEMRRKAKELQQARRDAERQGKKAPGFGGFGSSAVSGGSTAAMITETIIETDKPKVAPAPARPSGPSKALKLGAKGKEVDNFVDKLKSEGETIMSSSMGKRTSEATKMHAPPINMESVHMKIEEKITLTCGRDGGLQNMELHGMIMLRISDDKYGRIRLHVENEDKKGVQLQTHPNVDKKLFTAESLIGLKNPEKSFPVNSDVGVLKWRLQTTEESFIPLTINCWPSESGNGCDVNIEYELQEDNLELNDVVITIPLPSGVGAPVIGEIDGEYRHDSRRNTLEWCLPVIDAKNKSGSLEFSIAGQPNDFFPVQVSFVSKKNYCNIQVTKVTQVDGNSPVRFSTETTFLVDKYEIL
In words: affinity purification with mass spectrometry; Myc-tagged ARCN1 immunoprecipitated from transfected HEK293T cells (MG132 10 μM for 12 h) and analysed by mass spectrometry for endogenous E3 ubiquitin ligases.

The chains behind the UniProt entries cited, without tags or fusion partners.
UniProt Q9UNE7: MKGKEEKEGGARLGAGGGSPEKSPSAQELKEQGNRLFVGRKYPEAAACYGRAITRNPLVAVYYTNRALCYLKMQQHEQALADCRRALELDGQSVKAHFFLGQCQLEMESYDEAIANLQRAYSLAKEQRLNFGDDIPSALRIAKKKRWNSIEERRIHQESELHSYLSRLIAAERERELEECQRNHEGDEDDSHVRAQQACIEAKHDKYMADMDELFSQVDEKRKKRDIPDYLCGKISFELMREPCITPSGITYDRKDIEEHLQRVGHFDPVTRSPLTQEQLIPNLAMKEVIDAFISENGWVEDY

No constants are given. Whether binding was seen depends on the method and setting. Binding seen in cells or lysates may run through a third protein. Here binding means that the protein was enriched with, or labelled near, the bait; the list need not be complete. Sequences can lack the tags named with a protein.

As for “endogenous STUB1 of HEK293T cells (from UniProt Q9UNE7 1-303)”, the binding entry is “binds”.

These data come from article PMC12677500.
